The values that follow come from publication PMC11372125.

By UniProt entry, the sequences of proteins in these tests, tags left out.
UniProt Q93008: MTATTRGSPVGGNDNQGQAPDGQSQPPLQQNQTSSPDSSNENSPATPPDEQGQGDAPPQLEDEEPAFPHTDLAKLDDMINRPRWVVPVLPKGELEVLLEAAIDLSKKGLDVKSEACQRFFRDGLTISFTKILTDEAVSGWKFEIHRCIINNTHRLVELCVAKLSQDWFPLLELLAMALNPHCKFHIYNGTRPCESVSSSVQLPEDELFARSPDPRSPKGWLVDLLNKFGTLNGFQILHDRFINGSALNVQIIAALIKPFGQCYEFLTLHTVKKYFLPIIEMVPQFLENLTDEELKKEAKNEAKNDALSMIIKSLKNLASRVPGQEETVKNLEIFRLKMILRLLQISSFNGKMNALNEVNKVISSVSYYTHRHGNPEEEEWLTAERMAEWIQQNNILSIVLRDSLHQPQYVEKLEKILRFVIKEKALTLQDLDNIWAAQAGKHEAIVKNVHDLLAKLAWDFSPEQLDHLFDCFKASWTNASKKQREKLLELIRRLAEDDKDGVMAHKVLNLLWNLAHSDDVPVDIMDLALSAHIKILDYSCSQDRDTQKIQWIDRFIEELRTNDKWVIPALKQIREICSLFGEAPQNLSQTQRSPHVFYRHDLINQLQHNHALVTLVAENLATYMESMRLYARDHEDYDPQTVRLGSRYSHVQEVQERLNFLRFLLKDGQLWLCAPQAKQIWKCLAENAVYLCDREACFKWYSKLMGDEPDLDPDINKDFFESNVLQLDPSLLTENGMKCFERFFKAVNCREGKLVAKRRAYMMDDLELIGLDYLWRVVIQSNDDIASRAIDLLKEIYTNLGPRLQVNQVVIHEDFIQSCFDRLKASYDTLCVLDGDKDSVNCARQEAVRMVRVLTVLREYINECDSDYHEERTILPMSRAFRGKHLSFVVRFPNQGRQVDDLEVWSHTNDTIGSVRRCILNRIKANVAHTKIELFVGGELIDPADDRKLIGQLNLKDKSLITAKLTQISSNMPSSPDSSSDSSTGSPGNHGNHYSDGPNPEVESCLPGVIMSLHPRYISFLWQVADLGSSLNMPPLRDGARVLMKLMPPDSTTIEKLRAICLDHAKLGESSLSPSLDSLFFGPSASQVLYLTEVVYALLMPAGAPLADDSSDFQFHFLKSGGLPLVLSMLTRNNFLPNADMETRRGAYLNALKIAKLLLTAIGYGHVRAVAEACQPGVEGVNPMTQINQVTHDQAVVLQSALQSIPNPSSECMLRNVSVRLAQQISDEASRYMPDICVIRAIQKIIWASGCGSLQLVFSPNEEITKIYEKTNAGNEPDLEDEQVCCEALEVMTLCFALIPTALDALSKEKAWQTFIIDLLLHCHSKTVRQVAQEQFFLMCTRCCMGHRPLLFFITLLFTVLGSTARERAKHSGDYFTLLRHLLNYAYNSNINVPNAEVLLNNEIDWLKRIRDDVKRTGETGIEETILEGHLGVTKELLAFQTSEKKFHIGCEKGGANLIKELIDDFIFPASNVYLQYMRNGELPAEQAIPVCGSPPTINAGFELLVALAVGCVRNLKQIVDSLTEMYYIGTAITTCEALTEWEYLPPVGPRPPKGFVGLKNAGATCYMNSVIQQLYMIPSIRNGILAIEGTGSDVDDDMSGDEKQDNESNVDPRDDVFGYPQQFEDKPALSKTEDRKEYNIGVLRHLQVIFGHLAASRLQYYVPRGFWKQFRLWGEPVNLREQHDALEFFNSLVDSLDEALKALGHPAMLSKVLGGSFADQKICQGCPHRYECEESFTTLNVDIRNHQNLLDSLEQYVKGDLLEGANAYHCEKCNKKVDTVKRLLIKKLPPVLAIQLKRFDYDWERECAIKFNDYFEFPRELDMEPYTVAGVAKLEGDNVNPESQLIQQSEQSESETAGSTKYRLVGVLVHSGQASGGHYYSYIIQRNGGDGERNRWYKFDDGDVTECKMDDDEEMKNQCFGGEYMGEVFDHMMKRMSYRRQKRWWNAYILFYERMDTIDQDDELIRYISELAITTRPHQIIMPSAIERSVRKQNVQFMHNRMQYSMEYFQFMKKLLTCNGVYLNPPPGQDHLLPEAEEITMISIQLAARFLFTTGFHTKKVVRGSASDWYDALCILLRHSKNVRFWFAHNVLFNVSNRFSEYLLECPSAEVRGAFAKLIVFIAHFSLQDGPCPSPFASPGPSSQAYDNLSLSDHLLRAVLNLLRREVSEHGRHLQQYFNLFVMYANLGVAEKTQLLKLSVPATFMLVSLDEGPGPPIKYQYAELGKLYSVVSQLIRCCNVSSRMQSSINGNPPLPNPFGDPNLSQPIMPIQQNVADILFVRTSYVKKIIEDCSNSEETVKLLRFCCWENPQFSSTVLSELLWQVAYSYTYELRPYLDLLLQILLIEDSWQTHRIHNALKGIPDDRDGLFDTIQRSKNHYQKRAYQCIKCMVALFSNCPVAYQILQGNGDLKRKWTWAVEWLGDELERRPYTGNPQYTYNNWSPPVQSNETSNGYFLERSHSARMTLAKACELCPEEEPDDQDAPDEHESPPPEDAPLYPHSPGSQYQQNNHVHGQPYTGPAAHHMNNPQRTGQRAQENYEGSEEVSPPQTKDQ

Results are given in words; binding and its absence hold for the method and conditions named. In cells and extracts the contact can be indirect. Sequences can lack the tags named with a protein.

For this experiment, the target named is T1, FLAG-IRS4 (UniProt O14654).
T1 sequence: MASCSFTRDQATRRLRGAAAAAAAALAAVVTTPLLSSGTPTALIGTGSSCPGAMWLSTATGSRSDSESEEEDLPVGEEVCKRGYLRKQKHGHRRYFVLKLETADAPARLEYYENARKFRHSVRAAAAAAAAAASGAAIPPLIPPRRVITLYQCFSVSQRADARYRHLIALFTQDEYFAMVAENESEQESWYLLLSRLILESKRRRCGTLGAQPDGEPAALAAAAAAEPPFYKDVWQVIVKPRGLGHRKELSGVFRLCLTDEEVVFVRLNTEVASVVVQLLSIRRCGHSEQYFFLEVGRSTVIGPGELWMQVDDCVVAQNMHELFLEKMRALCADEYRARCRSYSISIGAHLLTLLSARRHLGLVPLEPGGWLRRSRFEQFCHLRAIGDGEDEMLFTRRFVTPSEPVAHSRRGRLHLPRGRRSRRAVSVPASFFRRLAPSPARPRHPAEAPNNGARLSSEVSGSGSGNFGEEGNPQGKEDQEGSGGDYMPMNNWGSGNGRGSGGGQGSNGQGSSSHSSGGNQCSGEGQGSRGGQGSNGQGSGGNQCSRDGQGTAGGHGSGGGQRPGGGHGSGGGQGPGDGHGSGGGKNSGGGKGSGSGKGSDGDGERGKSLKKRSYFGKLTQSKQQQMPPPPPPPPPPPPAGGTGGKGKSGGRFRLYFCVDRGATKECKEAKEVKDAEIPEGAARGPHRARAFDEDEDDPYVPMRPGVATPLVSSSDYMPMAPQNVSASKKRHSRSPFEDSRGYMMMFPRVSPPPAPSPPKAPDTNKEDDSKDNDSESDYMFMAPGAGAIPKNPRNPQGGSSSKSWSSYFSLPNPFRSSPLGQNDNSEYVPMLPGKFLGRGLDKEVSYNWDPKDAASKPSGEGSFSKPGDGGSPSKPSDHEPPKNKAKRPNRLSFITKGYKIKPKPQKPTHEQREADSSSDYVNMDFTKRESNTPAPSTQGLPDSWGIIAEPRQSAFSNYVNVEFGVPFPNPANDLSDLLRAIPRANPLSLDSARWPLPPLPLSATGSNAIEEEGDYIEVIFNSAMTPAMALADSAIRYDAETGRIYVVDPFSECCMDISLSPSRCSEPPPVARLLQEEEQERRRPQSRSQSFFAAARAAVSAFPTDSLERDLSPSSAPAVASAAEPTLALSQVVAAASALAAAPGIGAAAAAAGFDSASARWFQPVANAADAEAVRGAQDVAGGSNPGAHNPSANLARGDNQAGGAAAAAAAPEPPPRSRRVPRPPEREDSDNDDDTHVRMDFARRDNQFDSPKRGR
Briefly: co-IP; HEK293T cells transfected with tagged plasmids (with or without MYC-PILRB and HA-Ub); lysates immunoprecipitated with anti-FLAG-M2 agarose 4-6 h at 4 °C, western blot. (In western blotting, separated proteins are transferred to a membrane and probed.)

For the substance “V5-USP9X (from UniProt Q93008 1-2554) (enzyme)”, the binding entry was “no binding”.
